Measured values taken from publication PMC8668186, “Molecular architecture of the human tRNA ligase complex” (eLife, 2021).
Results are given in words; binding and its absence hold for the method and conditions named.

Amino acid sequences for entries named in this document (tags omitted). A change or cut given only in a name is not applied to a line headed by its entry.
UniProt Q9Y3I0: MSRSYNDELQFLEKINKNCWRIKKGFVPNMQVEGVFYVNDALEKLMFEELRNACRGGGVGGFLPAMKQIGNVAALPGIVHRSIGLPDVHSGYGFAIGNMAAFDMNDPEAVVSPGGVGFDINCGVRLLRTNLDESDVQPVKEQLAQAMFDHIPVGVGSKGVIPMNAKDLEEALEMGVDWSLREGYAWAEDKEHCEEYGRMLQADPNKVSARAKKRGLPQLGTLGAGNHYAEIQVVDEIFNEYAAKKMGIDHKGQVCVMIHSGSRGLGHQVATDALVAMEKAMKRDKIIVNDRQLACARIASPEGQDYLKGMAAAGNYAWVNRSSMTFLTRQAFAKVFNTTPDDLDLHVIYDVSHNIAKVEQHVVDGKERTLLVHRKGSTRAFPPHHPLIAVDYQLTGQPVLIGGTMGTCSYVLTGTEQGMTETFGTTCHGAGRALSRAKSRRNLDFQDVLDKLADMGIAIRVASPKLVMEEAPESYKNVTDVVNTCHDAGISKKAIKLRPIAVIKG
UniProt Q92499: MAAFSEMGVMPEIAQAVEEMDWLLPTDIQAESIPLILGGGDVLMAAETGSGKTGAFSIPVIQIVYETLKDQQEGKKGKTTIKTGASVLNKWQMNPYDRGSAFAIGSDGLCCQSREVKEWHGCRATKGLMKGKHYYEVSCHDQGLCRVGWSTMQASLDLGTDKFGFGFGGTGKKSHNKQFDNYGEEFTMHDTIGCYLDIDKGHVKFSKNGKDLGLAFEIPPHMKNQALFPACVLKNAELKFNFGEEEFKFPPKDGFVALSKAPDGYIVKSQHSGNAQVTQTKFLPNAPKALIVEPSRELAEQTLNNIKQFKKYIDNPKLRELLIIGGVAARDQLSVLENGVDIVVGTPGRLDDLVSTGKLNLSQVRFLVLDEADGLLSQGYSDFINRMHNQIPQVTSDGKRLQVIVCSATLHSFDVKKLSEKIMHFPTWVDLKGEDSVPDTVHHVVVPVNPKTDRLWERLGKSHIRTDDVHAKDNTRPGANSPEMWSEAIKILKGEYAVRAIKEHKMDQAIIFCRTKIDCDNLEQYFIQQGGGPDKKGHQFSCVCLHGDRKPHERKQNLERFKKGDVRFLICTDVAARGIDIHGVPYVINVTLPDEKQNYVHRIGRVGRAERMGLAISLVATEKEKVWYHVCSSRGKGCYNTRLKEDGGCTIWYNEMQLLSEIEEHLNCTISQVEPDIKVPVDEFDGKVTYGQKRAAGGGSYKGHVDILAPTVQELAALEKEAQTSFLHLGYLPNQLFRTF
UniProt Q52LJ0: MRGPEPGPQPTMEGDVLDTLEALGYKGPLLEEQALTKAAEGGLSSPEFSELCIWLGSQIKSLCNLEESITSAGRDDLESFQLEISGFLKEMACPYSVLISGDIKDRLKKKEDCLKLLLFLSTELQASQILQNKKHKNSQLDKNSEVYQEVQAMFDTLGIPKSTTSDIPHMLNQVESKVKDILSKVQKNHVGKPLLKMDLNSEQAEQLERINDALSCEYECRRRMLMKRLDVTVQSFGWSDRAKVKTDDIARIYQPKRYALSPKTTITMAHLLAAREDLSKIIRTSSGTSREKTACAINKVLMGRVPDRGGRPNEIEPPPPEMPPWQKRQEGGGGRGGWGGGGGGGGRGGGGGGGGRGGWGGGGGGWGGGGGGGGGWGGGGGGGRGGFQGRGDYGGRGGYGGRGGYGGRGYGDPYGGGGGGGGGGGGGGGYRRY
UniProt Q9Y224: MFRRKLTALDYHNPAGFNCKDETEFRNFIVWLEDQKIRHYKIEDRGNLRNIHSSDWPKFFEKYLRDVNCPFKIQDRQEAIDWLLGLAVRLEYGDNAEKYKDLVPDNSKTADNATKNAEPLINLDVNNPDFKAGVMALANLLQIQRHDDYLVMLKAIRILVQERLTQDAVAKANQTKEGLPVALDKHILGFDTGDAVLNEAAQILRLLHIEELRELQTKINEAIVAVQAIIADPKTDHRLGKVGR

Biological target: core tRNA-LC (RTCB:DDX1:FAM98B:CGI-99) (human) (UniProt Q9Y3I0+Q92499+Q52LJ0+Q9Y224)
Experiment: SEC; 2.5 nmol tRNA-LC (RTCB, DDX1, FAM98B, CGI-99) mixed with 5 nmol Archease, 30 min on ice; Superdex 200 10/300 in 20 mM HEPES pH 8.0, 250 mM KCl, 1 mM DTT; peak fractions on SDS-PAGE; both purified

B1: Archease (domain or fragment, UniProt Q8IWT0 27-167)
chain: VNRKYEYLDHTADVQLHAWGDTLEEAFEQCAMAMFGYMTDTGTVEPLQTVEVETQGDDLQSLLFHFLDEWLYKFSADEFFIPREVKVLSIDQRNFKLRSIGWGEEFSLSKHPQGTEVKAITYSAMQVYNEENPEVFVIIDI
binding: no binding (tested: 2.5 nmol of tRNA-LC with 5 nmol Archease)
